System: patients with symptomatic oHCM
Assay: SEQUOIA-HCM: cardiac biomarkers NT-proBNP and hs-cTnI
Format: in vivo, human
Conditions: 24-week treatment period
Text: A further exploratory objective of this trial was to evaluate the effect of aficamten on biomarker levels, as determined by changes from baseline values in NT-pro-BNP, hs-cardiac-TnI and other biomarkers through Week 24. Cardiac biomarkers. Aficamten treatment led to an immediate and significant reduction in both NT-proBNP and hs-cTnI, with substantial lowering of both biomarkers by week 2. […] Biomarker lowering persisted to week 24 when the relative reduction from baseline was-80% (95% CI-83%, −77%, p<0.001) in NT-proBNP and −43% (−49%, […], p<0.001) in hs-cTnI. […] Serum levels of NT-proBNP decreased from baseline to week 24 from 735 (604, 894) ng/L to 143 (120, 171) ng/L in patients receiving aficamten and remained unchanged from 710 (587, 859) ng/L to 717 (596, 863) ng/L in those receiving placebo, while hs-troponin decreased from 17.1 (14.1, 20.8) ng/L to 9.5 (8.0, 11.3) ng/L with aficamten and remained unchanged from 16.6 (13.3, 20.7) to 16.5 (13.7, 19.9) ng/L in placebo (P<0.001 for both comparisons compared to placebo). […] In contrast hs-cTnI reduction reflected 3% (−18%, 30%) of aficamten's effect on pVO2.

## CCc1nc(-c2ccc3c(c2)CC[C@H]3NC(=O)c2cnn(C)c2)no1 [aficamten, (R)—N-(5-(5-ethyl-1,2,4-oxadiazol-3-yl)-2,3-dihydro-1H-inden-1-yl)-1-methyl-1H-pyrazole-4-carboxamide]
  share of aficamten's effect on pVO2 reflected by NT-proBNP reduction (mediation analysis): 101%
  share of aficamten's effect on pVO2 reflected by hs-cTnI reduction (mediation analysis): 3%
